# Data as given in the supplement of paper PMC10849652.
# Amino acid sequences for entries named in this document (tags omitted). A change or cut given only in a name is not applied to a line headed by its entry.
# UniProt O60447: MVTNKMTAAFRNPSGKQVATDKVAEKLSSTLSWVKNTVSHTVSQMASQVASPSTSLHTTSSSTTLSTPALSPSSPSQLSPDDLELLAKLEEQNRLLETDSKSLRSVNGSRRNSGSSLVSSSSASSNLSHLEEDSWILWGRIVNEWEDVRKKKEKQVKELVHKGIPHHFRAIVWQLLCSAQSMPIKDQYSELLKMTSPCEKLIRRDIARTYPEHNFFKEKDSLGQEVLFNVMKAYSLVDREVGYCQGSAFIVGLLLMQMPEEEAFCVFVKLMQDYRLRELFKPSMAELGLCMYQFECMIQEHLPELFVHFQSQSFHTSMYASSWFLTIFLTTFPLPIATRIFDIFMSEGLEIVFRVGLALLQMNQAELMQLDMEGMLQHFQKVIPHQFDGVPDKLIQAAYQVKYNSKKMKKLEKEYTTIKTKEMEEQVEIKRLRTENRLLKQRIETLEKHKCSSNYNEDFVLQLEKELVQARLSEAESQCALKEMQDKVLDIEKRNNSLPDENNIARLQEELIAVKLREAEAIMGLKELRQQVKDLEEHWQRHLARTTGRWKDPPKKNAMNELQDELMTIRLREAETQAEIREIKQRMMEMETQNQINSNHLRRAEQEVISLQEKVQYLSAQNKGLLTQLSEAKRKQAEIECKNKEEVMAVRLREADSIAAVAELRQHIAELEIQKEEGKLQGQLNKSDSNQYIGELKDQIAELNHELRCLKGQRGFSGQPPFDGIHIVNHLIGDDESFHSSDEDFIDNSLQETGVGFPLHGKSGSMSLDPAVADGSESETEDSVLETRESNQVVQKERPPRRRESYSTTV
# UniProt Q9NV70: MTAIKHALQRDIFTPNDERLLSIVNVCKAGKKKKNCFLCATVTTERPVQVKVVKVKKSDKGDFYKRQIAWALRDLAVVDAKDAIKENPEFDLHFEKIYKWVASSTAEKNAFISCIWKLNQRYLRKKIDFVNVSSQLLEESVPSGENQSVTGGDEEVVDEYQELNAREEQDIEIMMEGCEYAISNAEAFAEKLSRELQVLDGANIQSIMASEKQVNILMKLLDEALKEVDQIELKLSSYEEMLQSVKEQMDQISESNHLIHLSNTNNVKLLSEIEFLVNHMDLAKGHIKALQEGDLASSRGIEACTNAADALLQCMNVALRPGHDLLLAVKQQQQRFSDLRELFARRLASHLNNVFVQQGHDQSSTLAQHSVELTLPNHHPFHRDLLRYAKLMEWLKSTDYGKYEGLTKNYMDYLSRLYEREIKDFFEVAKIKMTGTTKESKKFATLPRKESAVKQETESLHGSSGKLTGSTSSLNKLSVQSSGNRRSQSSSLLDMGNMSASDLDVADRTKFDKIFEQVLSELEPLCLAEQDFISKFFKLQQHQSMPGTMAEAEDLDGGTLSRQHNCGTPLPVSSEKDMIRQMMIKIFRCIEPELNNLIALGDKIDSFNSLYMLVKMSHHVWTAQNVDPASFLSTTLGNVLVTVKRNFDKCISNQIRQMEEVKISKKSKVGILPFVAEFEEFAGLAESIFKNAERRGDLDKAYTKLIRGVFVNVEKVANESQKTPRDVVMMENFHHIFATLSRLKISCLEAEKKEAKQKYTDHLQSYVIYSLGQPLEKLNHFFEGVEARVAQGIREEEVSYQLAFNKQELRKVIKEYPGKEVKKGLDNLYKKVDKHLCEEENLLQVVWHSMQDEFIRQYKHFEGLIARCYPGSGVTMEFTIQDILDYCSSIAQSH
# UniProt Q9UI08, whole entry, looked up: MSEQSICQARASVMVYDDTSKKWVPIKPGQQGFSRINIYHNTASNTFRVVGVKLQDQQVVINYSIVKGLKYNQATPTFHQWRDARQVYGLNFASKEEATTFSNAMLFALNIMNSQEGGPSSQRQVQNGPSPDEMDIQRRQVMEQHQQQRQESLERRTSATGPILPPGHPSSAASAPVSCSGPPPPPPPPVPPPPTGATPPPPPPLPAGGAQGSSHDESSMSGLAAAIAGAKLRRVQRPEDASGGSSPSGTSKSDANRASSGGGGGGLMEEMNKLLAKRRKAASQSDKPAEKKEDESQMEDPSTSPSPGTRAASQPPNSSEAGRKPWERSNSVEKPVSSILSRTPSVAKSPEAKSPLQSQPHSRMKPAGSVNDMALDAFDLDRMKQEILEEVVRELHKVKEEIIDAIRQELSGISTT
# UniProt P13804: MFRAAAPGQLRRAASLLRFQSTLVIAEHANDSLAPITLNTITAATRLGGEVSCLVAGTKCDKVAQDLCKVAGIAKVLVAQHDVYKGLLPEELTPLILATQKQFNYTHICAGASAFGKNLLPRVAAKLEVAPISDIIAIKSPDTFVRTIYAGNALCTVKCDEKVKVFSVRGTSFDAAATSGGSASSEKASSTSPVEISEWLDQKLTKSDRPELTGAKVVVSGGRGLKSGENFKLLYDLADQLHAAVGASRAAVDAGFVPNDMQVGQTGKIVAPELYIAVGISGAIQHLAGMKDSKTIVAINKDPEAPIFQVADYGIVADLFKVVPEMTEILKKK
# UniProt Q13868, whole entry, looked up: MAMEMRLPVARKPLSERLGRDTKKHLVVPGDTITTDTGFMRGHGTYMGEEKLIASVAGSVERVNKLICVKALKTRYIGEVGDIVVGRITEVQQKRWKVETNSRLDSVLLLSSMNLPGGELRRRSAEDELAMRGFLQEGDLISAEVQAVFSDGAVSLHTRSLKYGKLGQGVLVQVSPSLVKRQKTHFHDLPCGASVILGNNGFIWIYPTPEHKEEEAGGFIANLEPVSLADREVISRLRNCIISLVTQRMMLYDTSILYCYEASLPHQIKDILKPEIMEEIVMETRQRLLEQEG
# UniProt Q9BS26: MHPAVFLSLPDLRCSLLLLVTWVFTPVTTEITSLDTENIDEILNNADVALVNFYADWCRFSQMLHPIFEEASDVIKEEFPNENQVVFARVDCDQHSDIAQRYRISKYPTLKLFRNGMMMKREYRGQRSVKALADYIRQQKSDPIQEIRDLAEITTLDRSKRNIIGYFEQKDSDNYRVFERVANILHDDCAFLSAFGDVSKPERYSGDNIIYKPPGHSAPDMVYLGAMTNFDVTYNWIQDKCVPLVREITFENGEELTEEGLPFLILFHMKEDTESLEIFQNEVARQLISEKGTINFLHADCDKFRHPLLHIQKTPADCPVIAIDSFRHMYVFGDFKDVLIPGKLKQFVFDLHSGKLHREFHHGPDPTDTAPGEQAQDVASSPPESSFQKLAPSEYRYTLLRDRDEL
# UniProt Q8TAV0: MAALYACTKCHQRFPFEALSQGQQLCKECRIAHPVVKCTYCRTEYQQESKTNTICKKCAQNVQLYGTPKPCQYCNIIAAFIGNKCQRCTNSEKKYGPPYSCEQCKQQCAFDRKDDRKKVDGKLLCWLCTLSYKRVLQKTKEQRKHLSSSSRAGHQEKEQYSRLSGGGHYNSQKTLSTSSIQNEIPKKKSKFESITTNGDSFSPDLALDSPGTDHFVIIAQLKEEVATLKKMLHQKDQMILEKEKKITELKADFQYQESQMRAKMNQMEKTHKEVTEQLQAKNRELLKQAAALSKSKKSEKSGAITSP
# UniProt Q5W0V3: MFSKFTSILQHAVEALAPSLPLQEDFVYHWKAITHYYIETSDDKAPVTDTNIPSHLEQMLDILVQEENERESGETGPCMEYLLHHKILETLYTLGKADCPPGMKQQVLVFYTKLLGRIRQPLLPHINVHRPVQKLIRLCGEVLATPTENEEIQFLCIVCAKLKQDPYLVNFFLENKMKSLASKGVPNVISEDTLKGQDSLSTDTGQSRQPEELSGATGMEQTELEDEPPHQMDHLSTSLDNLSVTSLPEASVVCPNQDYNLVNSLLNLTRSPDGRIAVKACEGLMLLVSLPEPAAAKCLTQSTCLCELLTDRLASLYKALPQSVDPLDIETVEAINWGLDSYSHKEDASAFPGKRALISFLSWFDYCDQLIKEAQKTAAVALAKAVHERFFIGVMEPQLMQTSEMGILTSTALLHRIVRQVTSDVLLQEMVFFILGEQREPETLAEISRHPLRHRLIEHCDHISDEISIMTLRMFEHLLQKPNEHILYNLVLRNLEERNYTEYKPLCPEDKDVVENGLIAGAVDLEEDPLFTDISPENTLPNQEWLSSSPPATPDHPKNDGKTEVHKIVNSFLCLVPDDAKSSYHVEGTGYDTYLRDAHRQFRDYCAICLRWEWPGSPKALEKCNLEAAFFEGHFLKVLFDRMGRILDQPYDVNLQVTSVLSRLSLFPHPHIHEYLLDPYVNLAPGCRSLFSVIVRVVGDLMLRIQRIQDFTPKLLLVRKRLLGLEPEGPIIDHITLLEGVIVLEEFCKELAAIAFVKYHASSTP
# UniProt Q6P2I3: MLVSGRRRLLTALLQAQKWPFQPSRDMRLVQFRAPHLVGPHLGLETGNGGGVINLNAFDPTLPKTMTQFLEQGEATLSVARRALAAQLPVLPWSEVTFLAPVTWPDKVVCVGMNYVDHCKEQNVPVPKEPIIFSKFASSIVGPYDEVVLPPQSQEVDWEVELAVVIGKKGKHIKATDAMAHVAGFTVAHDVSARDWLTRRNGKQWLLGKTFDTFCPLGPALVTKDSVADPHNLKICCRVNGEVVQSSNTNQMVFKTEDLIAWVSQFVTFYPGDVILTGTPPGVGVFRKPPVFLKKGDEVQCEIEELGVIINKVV
# UniProt Q01780: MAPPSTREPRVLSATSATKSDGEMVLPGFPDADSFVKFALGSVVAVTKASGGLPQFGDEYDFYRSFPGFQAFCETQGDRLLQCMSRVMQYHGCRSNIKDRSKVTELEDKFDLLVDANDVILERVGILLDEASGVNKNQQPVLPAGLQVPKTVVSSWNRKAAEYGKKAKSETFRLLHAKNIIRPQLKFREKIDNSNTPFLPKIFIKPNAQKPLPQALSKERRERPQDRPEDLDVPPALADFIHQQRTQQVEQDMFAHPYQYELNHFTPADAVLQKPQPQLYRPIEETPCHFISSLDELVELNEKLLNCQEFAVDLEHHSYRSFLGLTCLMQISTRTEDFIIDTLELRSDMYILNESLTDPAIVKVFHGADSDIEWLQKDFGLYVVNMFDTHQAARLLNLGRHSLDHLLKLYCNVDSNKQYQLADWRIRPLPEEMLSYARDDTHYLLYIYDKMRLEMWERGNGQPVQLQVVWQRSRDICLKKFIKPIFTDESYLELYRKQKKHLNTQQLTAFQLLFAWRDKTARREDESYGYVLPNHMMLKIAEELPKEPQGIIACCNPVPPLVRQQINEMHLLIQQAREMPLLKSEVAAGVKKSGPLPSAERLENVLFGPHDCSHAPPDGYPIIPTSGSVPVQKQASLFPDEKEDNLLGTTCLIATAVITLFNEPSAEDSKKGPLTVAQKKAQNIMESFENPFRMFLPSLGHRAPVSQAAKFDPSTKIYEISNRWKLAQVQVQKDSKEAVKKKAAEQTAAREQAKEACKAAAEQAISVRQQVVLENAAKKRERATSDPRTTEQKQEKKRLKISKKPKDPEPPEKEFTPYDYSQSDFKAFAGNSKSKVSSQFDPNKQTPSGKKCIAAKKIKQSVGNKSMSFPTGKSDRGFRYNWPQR
# UniProt Q9NVQ4: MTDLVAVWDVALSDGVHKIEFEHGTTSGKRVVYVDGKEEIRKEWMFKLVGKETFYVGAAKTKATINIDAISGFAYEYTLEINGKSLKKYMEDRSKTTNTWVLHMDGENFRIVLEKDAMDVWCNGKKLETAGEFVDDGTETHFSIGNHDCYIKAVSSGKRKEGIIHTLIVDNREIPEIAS
# UniProt Q9C073: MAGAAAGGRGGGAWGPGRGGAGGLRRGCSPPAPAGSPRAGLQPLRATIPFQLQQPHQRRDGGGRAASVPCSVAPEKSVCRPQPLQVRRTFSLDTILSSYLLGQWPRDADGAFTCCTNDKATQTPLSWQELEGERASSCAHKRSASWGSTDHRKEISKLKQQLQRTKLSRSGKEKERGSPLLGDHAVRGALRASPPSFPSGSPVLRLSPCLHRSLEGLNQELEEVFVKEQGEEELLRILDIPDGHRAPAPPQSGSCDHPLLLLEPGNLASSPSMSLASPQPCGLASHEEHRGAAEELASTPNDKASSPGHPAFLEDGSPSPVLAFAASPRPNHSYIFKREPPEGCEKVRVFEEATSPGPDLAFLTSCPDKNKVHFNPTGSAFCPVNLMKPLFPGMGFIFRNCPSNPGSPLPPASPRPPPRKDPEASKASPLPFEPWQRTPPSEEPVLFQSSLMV
# UniProt O75477: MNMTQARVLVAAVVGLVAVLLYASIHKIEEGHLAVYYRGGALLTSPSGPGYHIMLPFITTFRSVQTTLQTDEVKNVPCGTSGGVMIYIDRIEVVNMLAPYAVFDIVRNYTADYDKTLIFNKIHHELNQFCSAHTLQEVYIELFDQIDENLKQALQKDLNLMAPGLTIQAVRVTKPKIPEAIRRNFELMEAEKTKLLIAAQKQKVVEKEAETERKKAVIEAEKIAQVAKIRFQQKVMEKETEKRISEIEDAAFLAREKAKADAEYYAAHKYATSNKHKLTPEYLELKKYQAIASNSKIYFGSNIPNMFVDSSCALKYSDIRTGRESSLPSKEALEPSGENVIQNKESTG
# This is one part of the list.
# Assays:
# Assay in all cases: log2 fold change, soluble protein after heating vs DMSO (PISA); higher = thermal stabilisation; K562 lysate, 10 uM; active = over 0.2 and 3.5 SD of the protein, either way, in both replicates (recomputed)
# alvocidib = compound: CN1CC[C@H](c2c(O)cc(O)c3c(=O)cc(-c4ccccc4Cl)oc23)[C@H](O)C1 [alvocidib]
# Procedure, shortened: (§1)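 The values are log-two fold changes in thermal stability compared with solvent controls and come from duplicates. They were obtained by TMTpro 16plex LC-MS/MS, with channel sums equalised, on the supernatant after 21,000xg for 90 min. That supernatant came from crude K562 extract at 1 mg/mL protein treated with 10 μM compound for 30 min, heated for 3 min across 48°C-58°C, pooled and brought to 0.5% NP-40 at 4°C.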
# Tubastatin A = compound: CN1CCc2c(c3ccccc3n2Cc2ccc(C(=O)NO)cc2)C1 [Tubastatin A]
# Procedure, shortened: as §1
# [1] = compound: CNC(=O)C1=CC=CC=C1NC2=NC(=NC=C2Cl)NC3=C(C=C(C=C3)N4CCOCC4)OC
# Procedure, shortened: as §1
# defactinib = compound: CNC(=O)c1ccc(Nc2ncc(C(F)(F)F)c(NCc3nccnc3N(C)S(C)(=O)=O)n2)cc1 [defactinib]
# Procedure, shortened: as §1
# [2] = compound: CNc1nc(-c2ccc3c(N)n[nH]c3c2)cc(N2C[C@@H](C(=O)NC3CCCCC3)CC[C@H]2C)n1
# Procedure, shortened: as §1
# encorafenib = compound: COC(=O)N[C@@H](C)CNc1nccc(-c2cn(C(C)C)nc2-c2cc(Cl)cc(NS(C)(=O)=O)c2F)n1 [encorafenib]
# Procedure, shortened: as §1
# [3] = compound: COC(=O)[C@H](CCSC)NC(=O)C1=C(C=C(C=C1)NC[C@H](CS)N)C2=CC=CC=C2
# Procedure, shortened: as §1
# alisertib = compound: COc1cc(Nc2ncc3c(n2)-c2ccc(Cl)cc2C(c2c(F)cccc2OC)=NC3)ccc1C(=O)O [alisertib]
# Procedure, shortened: as §1
# [4] = compound: COc1cc2nc(-c3cc(F)ccc3O)nc(N[C@@H]3CNC[C@H]3C(C)(C)O)c2cc1OC
# Procedure, shortened: as §1
# gefitinib = compound: COc1cc2ncnc(Nc3ccc(F)c(Cl)c3)c2cc1OCCCN1CCOCC1 [gefitinib]
# Procedure, shortened: as §1
# lapatinib = compound: CS(=O)(=O)CCNCc1ccc(-c2ccc3ncnc(Nc4ccc(OCc5cccc(F)c5)c(Cl)c4)c3c2)o1 [lapatinib]
# Procedure, shortened: as §1
# pictilisib = compound: CS(=O)(=O)N1CCN(Cc2cc3nc(-c4cccc5[nH]ncc45)nc(N4CCOCC4)c3s2)CC1 [pictilisib]
# Procedure, shortened: as §1
# crizotinib = compound: C[C@@H](Oc1cc(-c2cnn(C3CCNCC3)c2)cnc1N)c1c(Cl)ccc(F)c1Cl [crizotinib]
# Procedure, shortened: as §1
# [5] = compound: C[C@H](C1=CC=C(C=C1)C(=O)NC2=C3C=CNC3=NC=C2)N
# Procedure, shortened: as §1
# duvelisib = compound: C[C@H](Nc1ncnc2nc[nH]c12)c1cc2cccc(Cl)c2c(=O)n1-c1ccccc1 [duvelisib]
# Procedure, shortened: as §1
# gandotinib = compound: Cc1cc(Nc2cc(CN3CCOCC3)c3nc(C)c(Cc4ccc(Cl)cc4F)n3n2)n[nH]1 [gandotinib]
# Procedure, shortened: as §1
# tozasertib = compound: Cc1cc(Nc2cc(N3CCN(C)CC3)nc(Sc3ccc(NC(=O)C4CC4)cc3)n2)n[nH]1 [tozasertib]
# Procedure, shortened: as §1
# doramapimod = compound: Cc1ccc(-n2nc(C(C)(C)C)cc2NC(=O)Nc2ccc(OCCN3CCOCC3)c3ccccc23)cc1 [doramapimod]
# Procedure, shortened: as §1
# bafetinib = compound: Cc1ccc(NC(=O)c2ccc(CN3CC[C@H](N(C)C)C3)c(C(F)(F)F)c2)cc1Nc1nccc(-c2cncnc2)n1 [bafetinib]
# Procedure, shortened: as §1
# [6] = compound: Cc1cccc(CC(=O)N2CCc3c2ccc(-c2cn(C)c4ncnc(N)c24)c3F)n1
# Procedure, shortened: as §1
Target,log2 fold change (alvocidib),log2 fold change (Tubastatin A),log2 fold change [1],log2 fold change (defactinib),log2 fold change [2],log2 fold change (encorafenib),log2 fold change [3],log2 fold change (alisertib),log2 fold change [4],log2 fold change (gefitinib),log2 fold change (lapatinib),log2 fold change (pictilisib),log2 fold change (crizotinib),log2 fold change [5],log2 fold change (duvelisib),log2 fold change (gandotinib),log2 fold change (tozasertib),log2 fold change (doramapimod),log2 fold change (bafetinib),log2 fold change [6]
EVI5 isoform 2 (UniProt O60447),inactive: -0.02,inactive: -0.156,inactive: -0.055,inactive: 0.108,inactive: 0.019,inactive: 0.734,inactive: -0.02,inactive: 0.041,inactive: -0.098,inactive: -0.034,inactive: -0.07,inactive: -0.051,inactive: -0.158,inactive: -0.025,inactive: -0.085,inactive: -0.109,inactive: -0.024,inactive: 0.28,inactive: 0.083,inactive: 0.124
EXOC1 (UniProt Q9NV70),inactive: 0.01,inactive: -0.139,inactive: 0.006,inactive: 0.022,inactive: -0.086,inactive: 0.014,inactive: 0.012,inactive: 0.007,inactive: -0.015,inactive: 0.015,inactive: -0.013,inactive: 0.029,inactive: -0.041,inactive: 0.04,inactive: 0.016,inactive: -0.186,inactive: -0.004,inactive: 0.023,inactive: -0.04,inactive: 0.024
FAM118B (UniProt Q9BPY3),inactive: -0.023,inactive: -0.058,inactive: -0.002,inactive: 0.037,inactive: -0.009,inactive: 0.026,inactive: -0.048,inactive: -0.011,inactive: -0.043,inactive: 0.016,inactive: 0.022,inactive: -0.013,inactive: -0.093,inactive: -0.022,inactive: 0.045,inactive: -0.044,inactive: -0.008,inactive: 0.048,inactive: 0.008,inactive: 0.037
EVL isoform 2 (UniProt Q9UI08),inactive: -0.023,inactive: -0.051,inactive: -0.002,inactive: 0.01,inactive: 0.015,inactive: 0.059,inactive: -0.077,inactive: -0.05,inactive: 0.026,inactive: 0.047,inactive: 0.013,inactive: -0.049,inactive: -0.037,inactive: 0.014,inactive: 0.066,inactive: 0.05,inactive: 0.028,inactive: -0.014,inactive: -0.051,inactive: 0.005
ETFA (UniProt P13804),inactive: 0.005,inactive: 0.002,inactive: -0.006,inactive: -0.054,inactive: -0.041,inactive: -0.038,inactive: 0.02,inactive: 0.011,inactive: -0.002,inactive: -0.032,inactive: -0.022,inactive: 0,inactive: -0.006,inactive: -0.023,inactive: -0.023,inactive: -0.014,inactive: 0.001,inactive: 0.022,inactive: -0.004,inactive: 0.014
EXOSC2 (UniProt Q13868),inactive: -0.012,inactive: 0.047,inactive: 0.001,inactive: -0.016,inactive: -0.018,inactive: -0.01,inactive: -0.027,inactive: 0.007,inactive: 0.006,inactive: -0.032,inactive: -0.016,inactive: -0.034,inactive: -0.007,inactive: -0.076,inactive: 0.041,inactive: 0.055,inactive: -0.028,inactive: 0.02,inactive: -0.051,inactive: 0.014
ERP44 (UniProt Q9BS26),inactive: -0.016,inactive: 0.032,inactive: -0.013,inactive: 0.001,inactive: 0,inactive: -0.01,inactive: -0.019,inactive: 0,inactive: -0.011,inactive: 0.014,inactive: 0.009,inactive: -0.002,inactive: -0.003,inactive: -0.043,inactive: 0.021,inactive: 0.046,inactive: -0.052,inactive: 0.02,inactive: -0.026,inactive: 0.042
FAM76A isoform 3 (UniProt Q8TAV0),inactive: -0.033,inactive: 0.094,inactive: -0.025,inactive: 0.065,inactive: -0.091,inactive: -0.015,inactive: -0.145,inactive: -0.057,inactive: -0.009,inactive: -0.139,inactive: 0.109,inactive: 0.068,inactive: -0.031,inactive: -0.073,inactive: -0.019,inactive: -0.04,inactive: 0.135,inactive: -0.094,inactive: -0.059,inactive: 0.071
FAM160B1 (UniProt Q5W0V3),inactive: -0.024,inactive: -0.03,inactive: 0.017,inactive: -0.012,inactive: 0.011,inactive: 0.069,inactive: -0.061,inactive: -0.012,inactive: 0.033,inactive: 0,inactive: 0.02,inactive: -0.06,inactive: -0.069,inactive: -0.037,inactive: -0.012,inactive: 0.075,inactive: -0.026,inactive: 0.04,inactive: -0.013,inactive: 0.017
FAHD2B (UniProt Q6P2I3),inactive: -0.012,inactive: -0.041,inactive: -0.078,inactive: 0.11,inactive: 0,inactive: -0.083,inactive: -0.026,inactive: 0.124,inactive: 0.046,inactive: -0.155,inactive: 0.048,inactive: 0,inactive: 0.002,inactive: -0.044,inactive: 0.05,inactive: 0.04,inactive: -0.047,inactive: -0.093,inactive: -0.04,inactive: -0.093
EXOSC10 (UniProt Q01780),inactive: -0.015,inactive: -0.027,inactive: 0.05,inactive: -0.009,inactive: 0.102,inactive: -0.01,inactive: 0.059,inactive: 0.009,inactive: 0.007,inactive: -0.033,inactive: -0.019,inactive: -0.017,inactive: -0.025,inactive: -0.004,inactive: 0.013,inactive: 0.047,inactive: -0.055,inactive: 0.003,inactive: 0.017,inactive: 0.069
FAIM isoform 2 (UniProt Q9NVQ4),inactive: -0.015,inactive: 0.012,inactive: 0.007,inactive: -0.043,inactive: 0.115,inactive: 0.036,inactive: 0.106,inactive: -0.029,inactive: -0.035,inactive: 0.235,inactive: -0.035,inactive: -0.072,inactive: -0.106,inactive: 0.055,inactive: -0.056,inactive: -0.041,inactive: 0.129,inactive: -0.058,inactive: -0.077,inactive: 0.037
FAM117A (UniProt Q9C073),inactive: -0.001,inactive: 0.001,inactive: 0.042,inactive: -0.04,inactive: 0.002,inactive: -0.056,inactive: -0.033,inactive: -0.046,inactive: -0.032,inactive: -0.051,inactive: -0.026,inactive: -0.012,inactive: 0.016,inactive: 0.062,inactive: 0.021,inactive: 0.003,inactive: -0.025,inactive: 0.019,inactive: -0.005,inactive: -0.046
FAAP100 (UniProt Q0VG06),inactive: -0.045,inactive: -0.124,inactive: -0.026,inactive: 0.079,inactive: -0.041,inactive: -0.034,inactive: -0.029,inactive: -0.07,inactive: 0.023,inactive: 0.015,inactive: -0.114,inactive: -0.078,inactive: -0.023,inactive: 0.023,inactive: 0.024,inactive: 0.012,inactive: -0.036,inactive: 0.018,inactive: -0.005,inactive: 0.023
ERLIN1 (UniProt O75477),inactive: 0.006,inactive: -0.058,inactive: -0.001,inactive: -0.024,inactive: -0.066,inactive: 0.086,active: -0.216,inactive: -0.007,inactive: -0.028,inactive: 0.035,inactive: -0.041,inactive: -0.01,inactive: 0.032,inactive: -0.094,inactive: -0.011,inactive: 0.033,inactive: 0.019,inactive: 0.048,inactive: -0.027,inactive: 0.03

# Reprinted at random: 2 records from the list, in no set order.
Target,log2 fold change (alvocidib),log2 fold change (Tubastatin A),log2 fold change [1],log2 fold change (defactinib),log2 fold change [2],log2 fold change (encorafenib),log2 fold change [3],log2 fold change (alisertib),log2 fold change [4],log2 fold change (gefitinib),log2 fold change (lapatinib),log2 fold change (pictilisib),log2 fold change (crizotinib),log2 fold change [5],log2 fold change (duvelisib),log2 fold change (gandotinib),log2 fold change (tozasertib),log2 fold change (doramapimod),log2 fold change (bafetinib),log2 fold change [6]
FAHD2B (UniProt Q6P2I3),inactive: -0.012,inactive: -0.041,inactive: -0.078,inactive: 0.11,inactive: 0,inactive: -0.083,inactive: -0.026,inactive: 0.124,inactive: 0.046,inactive: -0.155,inactive: 0.048,inactive: 0,inactive: 0.002,inactive: -0.044,inactive: 0.05,inactive: 0.04,inactive: -0.047,inactive: -0.093,inactive: -0.04,inactive: -0.093
ERLIN1 (UniProt O75477),inactive: 0.006,inactive: -0.058,inactive: -0.001,inactive: -0.024,inactive: -0.066,inactive: 0.086,active: -0.216,inactive: -0.007,inactive: -0.028,inactive: 0.035,inactive: -0.041,inactive: -0.01,inactive: 0.032,inactive: -0.094,inactive: -0.011,inactive: 0.033,inactive: 0.019,inactive: 0.048,inactive: -0.027,inactive: 0.03
